According to US5451564A, “Antimicrobial composition comprising N-hydroxy heterocyclic thiones” (priority 1991, dated 1995):
The source gives many values for each of these; only a part stands here.

System: mixed suspension of Pseudomonas aeruginosa, Proteus rettgeri, Serratia marcescans, Aeromonas hydrophila, Alcaligenes species, Pseudomonas cepacia and …
Assay: repeated bacterial challenge test in acrylic (emulsion) paint
Type: cell-based, mixed bacteria
Set-up: key: 5: Confluent growth; 4: Heavy growth; 3: Moderate growth; 2: Slight growth; 1: Trace growth; 0: No growth
Experimental: An inoculum was prepared containing Pseudomonas aeruginosa, Proteus rettgeri, Serratia marcescans, Aeromonas hydrophila, Alcaligenes species, Pseudomonas cepacia and Pseudomonas putida by culturing the individual organisms onto nutrient agar and incubating for 24 hours at 30° C. Each of the individual suspensions of the test organisms were then prepared at a concentration of 10E8 cfu/ml in one quarter strength Ringer's solution by means of a Thoma counting chamber. A mixed suspension was obtained by mixing equal volumes of the individual suspensions. This procedure was repeated for each of the three challenges to which the test substrates were subjected, and the concentration of micro-organisms in each substrate after challenge was 2×10E6 cfu/ml.
Aliquots (50 parts) of a standard laboratory acrylic latex and an emulsion paint were prepared containing 0, 10, 25, 50, 100, 125, 250, 500 and 750 ppm of the 1:2 zinc complex of 3-hydroxy-4-methylthiazol-2(3H)thione which was prepared as a 1% dispersion in an aqueous solution of 0.1M tetrasodium pyrophosphate. A 1% dispersion of the 1:2 zinc complex of 1-hydroxy-2-pyridinethiol in an aqueous solution of 0.1M tetrasodiumpyrophosphate was evaluated in the same manner.
The test substrates were then stored at 40° C. for seven days and were then challenged on three separate occasions with 1 part by volume of the mixed suspension of micro-organisms. All the substrates were then incubated at 30° C. and examined for the presence of viable bacteria after 1, 3 and 7 days after each challenge (Phase 1).
Those samples which had achieved sterility were then stored for a further 8 weeks at 30° C., and were then rechallenged and the number of viable organisms again determined (Phase 2).
Viable bacteria were detected by streaking small aliquots onto nutrient agar followed by incubation at 30° C. for 2 days. The presence or absence of colonies was determined visually. […]

With Cc1csc(=S)n1[O-].Cc1csc(=S)n1[O-].[Zn+2] [Compound A, 1:2 zinc complex of 3-hydroxy-4-methylthiazol-2(3H)thione] the growth rating (paint 100 ppm, Phase 1 Chall 1, day 3) was 2, the growth rating (paint 100 ppm, Phase 1 Chall 1, day 7) was 0 and the growth rating (paint 100 ppm, Phase 1 Chall 2, day 1) was 5. The growth rating (paint 100 ppm, Phase 1 Chall 2, day 3) was 4, the growth rating (paint 100 ppm, Phase 1 Chall 2, day 7) was 0 and the growth rating (paint 100 ppm, Phase 1 Chall 3, day 1) was 5. It also gave a growth rating (paint 100 ppm, Phase 1 Chall 3, day 3) of 4, a growth rating (paint 100 ppm, Phase 1 Chall 3, day 7) of 0 and a growth rating (paint 125 ppm, Phase 1 Chall 1, day 1) of 5. The growth rating (paint 125 ppm, Phase 1 Chall 1, day 3) was 2, the growth rating (paint 125 ppm, Phase 1 Chall 1, day 7) was 0 and the growth rating (paint 125 ppm, Phase 1 Chall 2, day 1) was 5. For the same compound, the growth rating (paint 125 ppm, Phase 1 Chall 2, day 3) was 4, the growth rating (paint 125 ppm, Phase 1 Chall 2, day 7) was 0 and the growth rating (paint 125 ppm, Phase 1 Chall 3, day 1) was 5. For the same compound, the growth rating (paint 125 ppm, Phase 1 Chall 3, day 3) was 4, the growth rating (paint 125 ppm, Phase 1 Chall 3, day 7) was 0 and the growth rating (paint 250 ppm, Phase 1 Chall 1, day 1) was 5. For the same compound, the growth rating (paint 250 ppm, Phase 1 Chall 1, day 3) was 1, the growth rating (paint 250 ppm, Phase 1 Chall 1, day 7) was 0 and the growth rating (paint 250 ppm, Phase 1 Chall 2, day 1) was 4. The growth rating (paint 250 ppm, Phase 1 Chall 2, day 3) was 4, the growth rating (paint 250 ppm, Phase 1 Chall 2, day 7) was 0 and the growth rating (paint 250 ppm, Phase 1 Chall 3, day 1) was 5. The growth rating (paint 250 ppm, Phase 1 Chall 3, day 3) was 4, the growth rating (paint 250 ppm, Phase 1 Chall 3, day 7) was 0 and the growth rating (paint 500 ppm, Phase 1 Chall 1, day 1) was 5. The growth rating (paint 500 ppm, Phase 1 Chall 1, day 3) was 1, the growth rating (paint 500 ppm, Phase 1 Chall 1, day 7) was 0 and the growth rating (paint 500 ppm, Phase 1 Chall 2, day 1) was 4. For the same compound, the growth rating (paint 500 ppm, Phase 1 Chall 2, day 3) was 3, the growth rating (paint 500 ppm, Phase 1 Chall 2, day 7) was 0 and the growth rating (paint 500 ppm, Phase 1 Chall 3, day 1) was 5. The growth rating (paint 500 ppm, Phase 1 Chall 3, day 3) was 3, the growth rating (paint 500 ppm, Phase 1 Chall 3, day 7) was 0 and the growth rating (paint 750 ppm, Phase 1 Chall 1, day 1) was 4. It also gave a growth rating (paint 750 ppm, Phase 1 Chall 1, day 3) of 1, a growth rating (paint 750 ppm, Phase 1 Chall 1, day 7) of 0 and a growth rating (paint 750 ppm, Phase 1 Chall 2, day 1) of 4. It also gave a growth rating (paint 750 ppm, Phase 1 Chall 2, day 3) of 3, a growth rating (paint 750 ppm, Phase 1 Chall 2, day 7) of 0 and a growth rating (paint 750 ppm, Phase 1 Chall 3, day 1) of 4. For the same compound, the growth rating (paint 750 ppm, Phase 1 Chall 3, day 3) was 4 and the growth rating (paint 750 ppm, Phase 1 Chall 3, day 7) was 0.
